We go through 39 targets from the supplement of paper PMC12067093, “Discovery and optimisation of a covalent ligand for TRIM25 and its application to targeted protein ubiquitination” (Chemical Science, 2025).

Sequences of proteins named here, by UniProt entry; tags and fusion partners are left off. A change or cut given only in a name is not applied to a line headed by its entry.
UniProt Q96CS3: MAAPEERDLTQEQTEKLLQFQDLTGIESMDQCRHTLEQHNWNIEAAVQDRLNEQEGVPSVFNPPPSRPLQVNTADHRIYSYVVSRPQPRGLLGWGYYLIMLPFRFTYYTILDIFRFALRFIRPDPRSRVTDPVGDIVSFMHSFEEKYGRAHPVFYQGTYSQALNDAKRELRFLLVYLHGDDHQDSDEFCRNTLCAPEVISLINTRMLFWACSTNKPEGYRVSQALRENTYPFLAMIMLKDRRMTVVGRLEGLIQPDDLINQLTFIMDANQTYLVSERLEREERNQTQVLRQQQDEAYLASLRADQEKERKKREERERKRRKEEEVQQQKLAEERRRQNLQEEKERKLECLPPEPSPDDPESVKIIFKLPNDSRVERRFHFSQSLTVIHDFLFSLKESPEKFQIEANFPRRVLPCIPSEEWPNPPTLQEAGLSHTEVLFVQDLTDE
UniProt Q8TAG9: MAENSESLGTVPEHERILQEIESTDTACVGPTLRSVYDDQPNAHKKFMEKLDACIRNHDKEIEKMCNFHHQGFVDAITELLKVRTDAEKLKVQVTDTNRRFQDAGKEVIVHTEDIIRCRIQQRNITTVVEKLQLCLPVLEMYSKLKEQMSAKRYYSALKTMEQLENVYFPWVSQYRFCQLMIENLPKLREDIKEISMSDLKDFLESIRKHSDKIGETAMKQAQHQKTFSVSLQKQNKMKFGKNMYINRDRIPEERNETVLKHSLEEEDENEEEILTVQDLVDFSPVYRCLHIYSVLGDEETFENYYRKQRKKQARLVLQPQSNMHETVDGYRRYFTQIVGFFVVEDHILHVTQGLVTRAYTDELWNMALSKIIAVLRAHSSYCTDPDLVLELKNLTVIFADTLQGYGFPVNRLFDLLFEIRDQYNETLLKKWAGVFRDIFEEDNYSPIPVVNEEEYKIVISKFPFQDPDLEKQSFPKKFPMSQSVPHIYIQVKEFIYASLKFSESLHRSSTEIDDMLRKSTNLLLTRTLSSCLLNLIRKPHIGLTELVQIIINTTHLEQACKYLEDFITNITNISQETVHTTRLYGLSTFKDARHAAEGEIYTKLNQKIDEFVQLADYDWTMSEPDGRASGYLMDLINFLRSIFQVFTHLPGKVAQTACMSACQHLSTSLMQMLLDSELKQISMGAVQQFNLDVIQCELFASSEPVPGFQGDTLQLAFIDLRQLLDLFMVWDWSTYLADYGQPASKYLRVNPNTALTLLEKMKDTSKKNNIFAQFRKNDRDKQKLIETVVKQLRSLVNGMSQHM
UniProt Q5T8I3: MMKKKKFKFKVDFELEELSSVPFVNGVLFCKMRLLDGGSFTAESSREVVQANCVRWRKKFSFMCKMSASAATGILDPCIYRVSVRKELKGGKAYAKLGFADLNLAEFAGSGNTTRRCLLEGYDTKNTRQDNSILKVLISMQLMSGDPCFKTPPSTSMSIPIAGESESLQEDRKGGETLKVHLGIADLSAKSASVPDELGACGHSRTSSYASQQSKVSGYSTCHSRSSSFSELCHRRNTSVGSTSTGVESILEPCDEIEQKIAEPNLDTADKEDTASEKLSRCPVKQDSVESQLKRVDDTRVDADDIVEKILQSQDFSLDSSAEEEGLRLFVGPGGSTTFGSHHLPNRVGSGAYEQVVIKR
UniProt Q96EK7: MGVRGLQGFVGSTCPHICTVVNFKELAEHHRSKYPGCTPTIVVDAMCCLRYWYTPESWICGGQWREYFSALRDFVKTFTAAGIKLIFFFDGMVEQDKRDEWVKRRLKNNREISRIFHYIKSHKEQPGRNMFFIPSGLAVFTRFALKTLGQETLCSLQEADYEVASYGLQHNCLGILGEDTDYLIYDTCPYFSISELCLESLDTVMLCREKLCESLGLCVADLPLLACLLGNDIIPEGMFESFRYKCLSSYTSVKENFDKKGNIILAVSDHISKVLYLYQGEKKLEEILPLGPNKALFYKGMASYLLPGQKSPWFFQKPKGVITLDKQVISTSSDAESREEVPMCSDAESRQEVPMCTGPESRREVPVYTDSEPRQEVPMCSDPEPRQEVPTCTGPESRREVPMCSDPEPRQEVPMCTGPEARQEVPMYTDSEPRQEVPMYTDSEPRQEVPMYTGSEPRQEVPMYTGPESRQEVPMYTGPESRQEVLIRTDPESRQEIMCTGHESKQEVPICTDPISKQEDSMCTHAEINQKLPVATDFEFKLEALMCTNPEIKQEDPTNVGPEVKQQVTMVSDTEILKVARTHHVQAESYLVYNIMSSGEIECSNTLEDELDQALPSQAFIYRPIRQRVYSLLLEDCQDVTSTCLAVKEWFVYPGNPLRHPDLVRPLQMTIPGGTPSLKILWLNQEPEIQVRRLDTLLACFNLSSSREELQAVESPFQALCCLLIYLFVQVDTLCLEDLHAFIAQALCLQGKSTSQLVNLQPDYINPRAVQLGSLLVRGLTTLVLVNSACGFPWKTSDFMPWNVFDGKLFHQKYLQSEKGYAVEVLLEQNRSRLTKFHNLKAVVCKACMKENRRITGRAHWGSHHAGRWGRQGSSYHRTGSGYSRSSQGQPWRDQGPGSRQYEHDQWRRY
UniProt Q9UPT5: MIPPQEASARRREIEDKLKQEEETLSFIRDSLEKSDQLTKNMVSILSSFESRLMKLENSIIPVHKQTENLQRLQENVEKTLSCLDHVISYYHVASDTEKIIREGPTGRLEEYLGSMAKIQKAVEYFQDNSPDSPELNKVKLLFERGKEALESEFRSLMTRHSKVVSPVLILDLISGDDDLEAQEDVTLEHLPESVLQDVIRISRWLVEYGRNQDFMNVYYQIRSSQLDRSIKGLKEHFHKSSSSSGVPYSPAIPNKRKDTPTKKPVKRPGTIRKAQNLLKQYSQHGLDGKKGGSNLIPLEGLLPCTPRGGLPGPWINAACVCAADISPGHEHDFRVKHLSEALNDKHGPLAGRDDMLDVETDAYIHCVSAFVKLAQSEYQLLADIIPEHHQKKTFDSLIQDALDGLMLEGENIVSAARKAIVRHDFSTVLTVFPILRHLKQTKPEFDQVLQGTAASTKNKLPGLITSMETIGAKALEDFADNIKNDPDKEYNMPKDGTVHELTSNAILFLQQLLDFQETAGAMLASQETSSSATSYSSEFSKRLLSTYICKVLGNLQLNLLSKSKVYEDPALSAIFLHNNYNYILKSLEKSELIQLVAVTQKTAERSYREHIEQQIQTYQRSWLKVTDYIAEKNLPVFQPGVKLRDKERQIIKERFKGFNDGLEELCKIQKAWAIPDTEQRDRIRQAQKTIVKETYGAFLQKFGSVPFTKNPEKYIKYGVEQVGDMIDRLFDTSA
UniProt Q5RKV6, whole entry, looked up: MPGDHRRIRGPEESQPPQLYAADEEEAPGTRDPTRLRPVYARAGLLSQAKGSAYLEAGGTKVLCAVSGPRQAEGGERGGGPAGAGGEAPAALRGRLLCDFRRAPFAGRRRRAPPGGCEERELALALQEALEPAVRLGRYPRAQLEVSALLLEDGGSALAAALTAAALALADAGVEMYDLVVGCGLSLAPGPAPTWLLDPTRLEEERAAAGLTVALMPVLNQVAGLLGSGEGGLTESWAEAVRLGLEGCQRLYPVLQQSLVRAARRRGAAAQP
UniProt Q96B26, whole entry, looked up: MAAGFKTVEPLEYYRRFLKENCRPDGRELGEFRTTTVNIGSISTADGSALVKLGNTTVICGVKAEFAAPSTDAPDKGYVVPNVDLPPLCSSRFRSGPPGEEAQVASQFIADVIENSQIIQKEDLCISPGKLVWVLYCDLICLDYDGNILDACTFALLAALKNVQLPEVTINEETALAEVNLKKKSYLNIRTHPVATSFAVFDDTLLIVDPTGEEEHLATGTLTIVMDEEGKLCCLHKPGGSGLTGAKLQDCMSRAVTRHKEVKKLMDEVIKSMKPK
UniProt Q8IV48: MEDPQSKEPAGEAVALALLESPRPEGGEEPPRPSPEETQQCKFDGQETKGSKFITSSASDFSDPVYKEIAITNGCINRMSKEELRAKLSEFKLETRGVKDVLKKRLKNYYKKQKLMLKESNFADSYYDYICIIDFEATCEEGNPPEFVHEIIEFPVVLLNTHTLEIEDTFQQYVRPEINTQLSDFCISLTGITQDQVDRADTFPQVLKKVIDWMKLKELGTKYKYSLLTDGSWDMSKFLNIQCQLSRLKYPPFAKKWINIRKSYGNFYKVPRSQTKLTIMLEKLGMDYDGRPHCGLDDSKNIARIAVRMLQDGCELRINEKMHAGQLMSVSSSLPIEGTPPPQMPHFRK
UniProt O95571: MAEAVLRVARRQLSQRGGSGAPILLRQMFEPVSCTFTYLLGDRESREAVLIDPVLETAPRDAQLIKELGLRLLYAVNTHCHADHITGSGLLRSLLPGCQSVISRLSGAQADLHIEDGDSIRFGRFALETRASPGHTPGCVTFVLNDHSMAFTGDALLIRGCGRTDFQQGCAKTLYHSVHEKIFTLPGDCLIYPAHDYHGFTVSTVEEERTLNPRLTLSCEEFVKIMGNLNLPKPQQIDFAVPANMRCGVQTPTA
UniProt Q13158: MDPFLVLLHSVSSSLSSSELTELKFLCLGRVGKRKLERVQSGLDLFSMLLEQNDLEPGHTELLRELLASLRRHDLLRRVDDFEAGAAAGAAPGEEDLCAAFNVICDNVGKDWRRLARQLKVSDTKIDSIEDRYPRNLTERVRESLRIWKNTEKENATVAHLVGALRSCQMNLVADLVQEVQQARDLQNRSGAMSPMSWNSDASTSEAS
UniProt Q96PZ2, whole entry, looked up: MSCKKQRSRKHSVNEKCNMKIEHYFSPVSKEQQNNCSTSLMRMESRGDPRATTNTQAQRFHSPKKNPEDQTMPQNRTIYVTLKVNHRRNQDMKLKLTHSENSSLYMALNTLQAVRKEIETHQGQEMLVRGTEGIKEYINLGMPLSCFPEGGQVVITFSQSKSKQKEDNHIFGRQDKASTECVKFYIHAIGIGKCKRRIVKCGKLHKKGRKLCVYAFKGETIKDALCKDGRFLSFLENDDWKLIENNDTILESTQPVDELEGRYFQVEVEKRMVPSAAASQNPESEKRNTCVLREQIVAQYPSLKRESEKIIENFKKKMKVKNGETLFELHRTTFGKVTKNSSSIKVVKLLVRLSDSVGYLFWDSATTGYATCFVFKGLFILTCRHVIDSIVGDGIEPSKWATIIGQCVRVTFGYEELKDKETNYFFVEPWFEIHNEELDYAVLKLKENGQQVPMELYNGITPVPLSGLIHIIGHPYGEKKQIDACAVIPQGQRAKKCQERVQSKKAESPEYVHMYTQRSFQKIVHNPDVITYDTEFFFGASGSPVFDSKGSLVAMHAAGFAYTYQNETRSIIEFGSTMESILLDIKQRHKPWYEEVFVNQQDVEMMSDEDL
UniProt Q2NKX8: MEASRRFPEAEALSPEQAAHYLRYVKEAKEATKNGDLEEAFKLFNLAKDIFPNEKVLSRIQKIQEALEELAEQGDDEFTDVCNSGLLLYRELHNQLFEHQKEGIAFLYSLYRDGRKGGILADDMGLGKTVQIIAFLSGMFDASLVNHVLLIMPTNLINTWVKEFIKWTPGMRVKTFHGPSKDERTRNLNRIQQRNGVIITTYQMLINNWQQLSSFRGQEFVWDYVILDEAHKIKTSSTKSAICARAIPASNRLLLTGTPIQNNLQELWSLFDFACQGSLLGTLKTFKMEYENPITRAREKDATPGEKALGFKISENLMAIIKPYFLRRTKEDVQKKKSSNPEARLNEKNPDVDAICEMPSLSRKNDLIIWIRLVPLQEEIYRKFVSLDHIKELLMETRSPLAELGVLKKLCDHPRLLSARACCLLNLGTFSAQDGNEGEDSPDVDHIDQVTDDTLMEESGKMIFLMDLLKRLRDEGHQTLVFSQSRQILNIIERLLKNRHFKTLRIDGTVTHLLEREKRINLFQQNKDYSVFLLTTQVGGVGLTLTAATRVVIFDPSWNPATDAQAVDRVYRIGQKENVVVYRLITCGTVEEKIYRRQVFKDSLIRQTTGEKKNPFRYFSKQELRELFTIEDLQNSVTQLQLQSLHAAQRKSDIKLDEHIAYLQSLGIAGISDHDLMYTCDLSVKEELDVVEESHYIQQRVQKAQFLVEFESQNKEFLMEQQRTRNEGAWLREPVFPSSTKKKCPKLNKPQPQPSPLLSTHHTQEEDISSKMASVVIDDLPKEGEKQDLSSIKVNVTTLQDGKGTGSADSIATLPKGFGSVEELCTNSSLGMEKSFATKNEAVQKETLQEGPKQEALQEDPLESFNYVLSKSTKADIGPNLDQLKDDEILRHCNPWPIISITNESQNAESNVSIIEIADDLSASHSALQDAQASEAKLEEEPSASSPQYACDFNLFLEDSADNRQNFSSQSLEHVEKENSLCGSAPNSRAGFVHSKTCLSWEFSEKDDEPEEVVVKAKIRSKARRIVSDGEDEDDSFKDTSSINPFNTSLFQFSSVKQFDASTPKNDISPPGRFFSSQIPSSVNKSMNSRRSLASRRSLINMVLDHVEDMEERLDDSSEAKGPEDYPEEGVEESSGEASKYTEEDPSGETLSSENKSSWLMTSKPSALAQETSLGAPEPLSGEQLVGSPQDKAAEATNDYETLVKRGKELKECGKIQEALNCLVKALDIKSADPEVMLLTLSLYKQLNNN

Some of the results follow.
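Also: competitive chemoproteomic profiling in live THP-1 cells with an iodoacetamide desthiobiotin (IA-DTB) probe, comparing probe-labelled peptide intensities in compound-treated cells against DMSO-treated controls.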

Compound in this test: CC1Cc2ccccc2N1C(=O)C1CCCN(C1)C(=O)CCl (mixture of isomers) [TRIM25 ligand 11 (diastereomer mixture)]
As to the kind of experiment: probe-labelled cysteine peptide fold change vs DMSO (competition) (log2 fold change); higher = less target engagement (more negative = stronger competition). As to conditions: 10 µM; THP-1; incubation time: 4 h.
Turning to “FAF2_Q96CS3_194_NTLCAPEVISLINTR (UniProt Q96CS3)”, the “probe-labelled cysteine peptide fold change” value is -0.184.

As to “EXOC6_Q8TAG9_66_MCNFHHQGFVDAITELLK (UniProt Q8TAG9)”, the “probe-labelled cysteine peptide fold change” value came out at 0.0763.

For the target “FAM102B_Q5T8I3_201_SASVPDELGACGHSR (UniProt Q5T8I3)”, the “probe-labelled cysteine peptide fold change” value was 0.157.

Consider “FAM120B_Q96EK7_499_QEIMCTGHESK (UniProt Q96EK7)”, for which the “probe-labelled cysteine peptide fold change” value was determined as 0.159.

For the target “FAM120B_Q96EK7_511_QEVPICTDPISK (UniProt Q96EK7)”, the “probe-labelled cysteine peptide fold change” value was 0.151.

“ERMP1_Q7Z2K6_737_AHCEENAPLCGFPWYLPVHFLIR (UniProt Q7Z2K6)”: the “probe-labelled cysteine peptide fold change” value was -0.0364.

Regarding “EXOC7_Q9UPT5-2_285_RPGRDDMLDVETDAYIHCVSAFVK (UniProt Q9UPT5)”, the “probe-labelled cysteine peptide fold change” value was -0.115.

“EXOSC6_Q5RKV6_248_LGLEGCQR (UniProt Q5RKV6)”: the “probe-labelled cysteine peptide fold change” value is -0.00819.

For the target “EXOSC8_Q96B26_234_LCCLHKPGGSGLTGAK (UniProt Q96B26)”, the “probe-labelled cysteine peptide fold change” value was -0.103.

For the target “ETFDH_Q16134_387_LTFPGGLLIGCSPGFMNVPK (UniProt Q16134)”, the “probe-labelled cysteine peptide fold change” value was -0.688.

With “ERI1_Q8IV48_294_LGMDYDGRPHCGLDDSK (UniProt Q8IV48)”, the “probe-labelled cysteine peptide fold change” value was determined as 0.03.

“FAHD1_Q6P587_112_DVQDECK (UniProt Q6P587)”: the “probe-labelled cysteine peptide fold change” value is -0.0953.

Turning to “ERMP1_Q7Z2K6_222_DGAQHAVLANCHFDSVANSPGASDDAVSCSVMLEVLR (UniProt Q7Z2K6)”, the “probe-labelled cysteine peptide fold change” value was found to be 0.537.

For the target “ETHE1_O95571_34_QMFEPVSCTFTYLLGDRESR (UniProt O95571)”, the “probe-labelled cysteine peptide fold change” value is -0.517.

Turning to “FADD_Q13158_168_SCQMNLVADLVQEVQQAR (UniProt Q13158)”, the “probe-labelled cysteine peptide fold change” value is -0.127.

On to “FAH_P16930_105_CAFISQASATMHLPATIGDYTDFYSSR (UniProt P16930)”, for which the “probe-labelled cysteine peptide fold change” value is -0.0585.

Consider “EXOSC2_Q13868_191_THFHDLPCGASVILGNNGFIWIYPTPEHKEEEAGGFIANLEPVSLADR (UniProt Q13868)”, for which the “probe-labelled cysteine peptide fold change” value was found to be 0.127.

On to “FAM111A_Q96PZ2_181_ASTECVK (UniProt Q96PZ2)”, for which the “probe-labelled cysteine peptide fold change” value was -0.186.

“ERGIC3_Q9Y282_145_HELGKVEVTVFDPDSLDPDRCESCYGAEAEDIK (UniProt Q9Y282)”: the “probe-labelled cysteine peptide fold change” value was -0.245.

As for “FAM118B_Q9BPY3_126_DCLYEVFDDLESK (UniProt Q9BPY3)”, the “probe-labelled cysteine peptide fold change” value was -0.178.

Turning to “FAM111B_Q6SJ93_351_NYYFCSLPR (UniProt Q6SJ93)”, the “probe-labelled cysteine peptide fold change” value was -0.00273.

“ETF1_P62495_335_YVLHCQGTEEEK (UniProt P62495)”: the “probe-labelled cysteine peptide fold change” value was 0.181.

Regarding “ERLIN2_O94905_128_IHHELNQFCSVHTLQEVYIELFDQIDENLK (UniProt O94905)”, the “probe-labelled cysteine peptide fold change” value was 0.13.

As to “FAM120B_Q96EK7_356_QEVPMCTGPESR (UniProt Q96EK7)”, the “probe-labelled cysteine peptide fold change” value was -0.134.

Take “EXOSC1_Q9Y3B2_15_LCNLEEGSPGSGTYTR (UniProt Q9Y3B2)”: the “probe-labelled cysteine peptide fold change” value came to 0.0101.

In the case of “F2_P00734_564_RGDACEGDSGGPFVMK (UniProt P00734)”, the “probe-labelled cysteine peptide fold change” value is 0.606.

With “FAM120B_Q96EK7_523_QEDSMCTHAEINQK (UniProt Q96EK7)”, the “probe-labelled cysteine peptide fold change” value is 0.0281.

Regarding “ERCC3_P19447_284_CIHLEYPLLAEYDFR (UniProt P19447)”, the “probe-labelled cysteine peptide fold change” value turned out to be 0.0981.

Regarding “EZH2_Q15910_260_ELTEQQLPGALPPECTPNIDGPNAK (UniProt Q15910)”, the “probe-labelled cysteine peptide fold change” value was -0.13.

With “EXOC6_Q8TAG9_135_LQLCLPVLEMYSK (UniProt Q8TAG9)”, the “probe-labelled cysteine peptide fold change” value was 0.184.

As for “ERCC6L_Q2NKX8_411_LCDHPR (UniProt Q2NKX8)”, the “probe-labelled cysteine peptide fold change” value came out at 0.0342.

In the case of “ERGIC3_Q9Y282_182_NPDTIEQCR (UniProt Q9Y282)”, the “probe-labelled cysteine peptide fold change” value was 0.0471.

Take “EXOSC4_Q9NPD3_97_SCEMGLQLR (UniProt Q9NPD3)”: the “probe-labelled cysteine peptide fold change” value was -0.00406.

For “FAM120B_Q96EK7_416_QEVPMCTGPEAR (UniProt Q96EK7)”, the “probe-labelled cysteine peptide fold change” value is -0.0148.

Turning to “EXOC3_O60645_161_KLMDLECSR (UniProt O60645)”, the “probe-labelled cysteine peptide fold change” value is -0.0293.

In the case of “ESCO1_Q5FWF5_376_CILNGINSSAK (UniProt Q5FWF5)”, the “probe-labelled cysteine peptide fold change” value was -0.122.

As to “EXOC1_Q9NV70_837_HLCEEENLLQVVWHSMQDEFIR (UniProt Q9NV70)”, the “probe-labelled cysteine peptide fold change” value worked out at 0.233.

As for “EXOSC8_Q96B26_251_LQDCMSR (UniProt Q96B26)”, the “probe-labelled cysteine peptide fold change” value was -0.298.

Turning to “EXOSC10_Q01780_288_PQPQLYRPIEETPCHFISSLDELVELNEK (UniProt Q01780)”, the “probe-labelled cysteine peptide fold change” value came out at 0.279.
